The experiment can be described thus: qHTS Assay for Lipid Storage Modulators in Drosophila S3 Cells.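 For cell number change: cells counted by Cell Tracker Red CMTPX staining in the red channel.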 The conditions noted are these: BODIPY lipid droplet fluorescence, 18-24 h; for cell number change: measured here: cell count max response, cells fed with added oleic acid. In short, it runs like this: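 Drosophila S3 cells loaded with oleic acid (400 uM, as added) and compounds at several concentrations; lipid droplets imaged by 488-nm laser-scanning cytometry, 500–530 nm intensity and object ratio to cell channel. Percent activity normalized to 20 uM Triacsin C.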
On the technique in general: qHTS replaces the single test concentration by a dilution series.

Setting [1] is: measured here: cell number channel AC50, cells fed with added oleic acid.
Setting [2] is: measured here: lipid fluorescence (Fed channel) AC50, cells fed with added oleic acid.

The other results are listed elsewhere or left out. The main result of the screen is listed elsewhere. These columns were measured beside it and carry no call. Most of these compounds were active or inconclusive in the main read-out, so they are no random draw. Potencies come from curve fits of mixed quality, noted in brackets. Where a SMILES comes first, the peptide text is derived from it. The star is where a group is joined. OBn = c1ccc(CO*)cc1

With `NCC(=O)NCC(=O)OCc1ccccc1` (H-Gly-Gly-OBn), the cell number change is 6.24%. The AC50 under setting [1] was 1.84 µM [falling, partial curve, poor fit]. Also, the AC50 under setting [2] is 0.731 µM [falling, single point]. As to `COc1ccc(-c2nnc(SCC(=O)NC3CCCC3)n2C)cc1`, the cell number change is 22.9%. Besides, the AC50 under setting [1] is 3.66 µM [rising, full curve, poor fit]. Consider `CN(C(=O)c1cc(COc2c(F)cccc2F)on1)C1CCOC1` (configuration not stated), for which the cell number change is -4.34%. For `Cc1nn(C)cc1C(=O)Nc1ccc2c(c1)OCCO2`, the cell number change was 8.57%. Also, the AC50 under setting [1] is 2.06 µM [rising, partial curve]. With `COc1cccc(NC(=O)CNc2cc(S(=O)(=O)N3CCOCC3)ccc2N2CCCC2)c1`, the cell number change stood at 1.17%. Consider `C=CC(C)N1C(=O)S/C(=C\c2ccc(N3CCOCC3)cc2C)C1=O` (configuration not stated), for which, under setting [2], the AC50 was 7.31 µM [falling, partial curve, poor fit]. Turning to `O=C(Cn1[nH]c(=O)c2ccccc2c1=O)OCC(=O)c1ccc(Br)cc1`, the cell number change is -4%.

Regarding `Cc1ccc(OCC(O)CN2CCc3ccccc3C2)c(C)c1` (configuration not stated), the cell number change amounted to 18%. In addition, the AC50 under setting [2] was 20.6 µM [rising, single point]. Take `CCOC(=O)c1cccc(NC(=O)COc2ccc([N+](=O)[O-])cc2)c1`: the AC50 under setting [2] is 29.1 µM [falling, single point]. Consider `Cc1ccsc1C(=O)Nc1nc2ccccc2[nH]1`, for which the cell number change turned out to be 21.4%. Besides, under setting [2], the half-maximal activity concentration (AC50) is 0.82 µM [falling, full curve, poor fit]. As to `O=C1CCN(CCc2ccccc2)CCN1CCOc1ccccc1`, the cell number change worked out at 19.1%. The AC50 under setting [1] was 0.00461 µM [rising, full curve, poor fit]. Moreover, the AC50 under setting [2] was 0.92 µM [rising, full curve]. Turning to `COCCNC(=O)c1c(N)n(/N=C/c2cccs2)c2nc3ccccc3nc12`, the cell number change turned out to be 18.6%. Besides, under setting [2], the AC50 was 0.58 µM [rising, single point]. For the compound `CC(Oc1ccc(F)cc1)C(=O)Nc1cc(S(=O)(=O)N2CCCCC2)ccc1N1CCOCC1` (configuration not stated), under setting [1], the AC50 was 4.61 µM [rising, partial curve, poor fit]. With `CC1CCc2cc(F)ccc2N1C(=O)CCC(=O)O` (configuration not stated), the cell number change was -64.4%. The AC50 under setting [1] was 23.1 µM [falling, partial curve]. Further, the AC50 under setting [2] was 3.66 µM [falling, full curve]. As to `CCOc1ccc(-c2nc3n(c(=O)c2C#N)CCCS3)cc1`, the cell number change was -7.36%. Besides, the half-maximal activity concentration (AC50) under setting [2] was 1.64 µM [rising, full curve, poor fit]. In the case of `O=C(Nc1cccc2ncccc12)C(Cl)(Cl)Cl`, the AC50 under setting [1] is 0.731 µM [rising, single point]. On to `CCSc1nc2cc(C(=O)OC)ccc2c(=O)n1CC`, for which the cell number change was -31.5%. Further, under setting [1], the AC50 was 8.2 µM [falling, partial curve]. For the same compound, the AC50 under setting [2] is 13 µM [falling, partial curve]. For `CCOC(=O)N1CCN(C(=O)c2ccc3c(SCC(=O)O)c4c(nc3c2)CCC4)CC1`, the cell number change amounted to 14.5%. For the compound `CCOC(=O)C(Oc1ccc2c(-c3ccccc3)cc(=O)oc2c1)c1ccccc1` (configuration not stated), the cell number change was -0.611%. The AC50 under setting [1] is 3.26 µM [rising, partial curve]. Moreover, the concentration at half-maximal activity (AC50) under setting [2] is 4.61 µM [rising, partial curve]. Regarding `CC(C)NC(=O)N1CCC(c2nc3ccccc3s2)CC1`, the concentration at half-maximal activity (AC50) under setting [2] was 6.51 µM [rising, partial curve]. For the compound `CCOc1ccc(C(=O)NC(C)CCc2ccccc2)cc1` (configuration not stated), the cell number change is -0.324%. Further, under setting [2], the AC50 was 32.6 µM [falling, single point].

For the compound `COc1ccc(C(=O)N/N=C/C2CC=CCC2)cc1OC` (configuration not stated), the cell number change was -5.21%.

Turning to `CC(C)CN(C(=O)Cn1nnc(-c2ccc(F)cc2)n1)C1CCS(=O)(=O)C1` (configuration not stated), the cell number change was found to be 34.9%. The AC50 under setting [1] is 14.6 µM [rising, single point]. The AC50 under setting [2] is 16.4 µM [rising, single point]. For the compound `CCOC(=O)c1sc(=S)n(C)c1NC(=O)c1ccc(C(C)(C)C)cc1`, the cell number change was -39.5%. In addition, the AC50 under setting [1] was 18.4 µM [falling, partial curve, poor fit]. The AC50 under setting [2] was 10.3 µM [falling, partial curve]. Turning to `Cc1ccc(/C([O-])=C(/C(=S)NCc2ccccc2)[n+]2cccc(CO)c2)cc1[N+](=O)[O-]`, the cell number change was 31%. Further, the AC50 under setting [1] was 29.1 µM [rising, single point]. As to `O=[N+]([O-])c1ccc(N/N=C/c2ccccc2)c(F)c1`, the cell number change was -7.38%. The AC50 under setting [2] was 0.146 µM [falling, full curve, poor fit]. Turning to `O=C(COC(=O)c1ccc([N+](=O)[O-])s1)Nc1ccc(F)cc1`, the cell number change was 9.17%. For the same compound, the AC50 under setting [2] is 0.164 µM [falling, full curve, poor fit]. Consider `CSc1ncc(C(=O)Nc2ccccc2)cn1`, for which the cell number change was -2.11%. Also, under setting [2], the AC50 was 32.6 µM [rising, single point]. As for `CC(C)(C)NC(=O)c1cnn(-c2ccccc2)c1NC(=O)c1ccccc1`, the cell number change was 15.2%. Besides, the AC50 under setting [2] was 0.116 µM [falling, full curve, poor fit].

For `CC1(C)C(=O)OC(c2cccc([N+](=O)[O-])c2)C2(CCCCC2)C1=O` (configuration not stated), the cell number change was -10.1%. For the same compound, the AC50 under setting [2] is 29.1 µM [rising, single point]. On to `O=C1Nc2ccc(Br)cc2/C1=C/C1CC=CCC1` (configuration not stated), for which the cell number change is -64.5%. Further, the AC50 under setting [1] was 18.4 µM [falling, single point]. Also, the AC50 under setting [2] was 20.6 µM [falling, single point].

In the case of `CC(C)(C)OC(=O)N1CCC(CC2CC(c3ccccc3)=NO2)(C(=O)NCc2ccccc2)CC1` (configuration not stated), the cell number change was -24%. Further, the AC50 under setting [2] is 0.231 µM [rising, full curve]. For the compound `CSCc1c(C(=O)NC2CCCc3ccccc32)oc2ccccc12` (configuration not stated), the cell number change is 4.51%. Also, under setting [2], the AC50 was 20.6 µM [falling, single point]. Consider `COc1cc(OC)c(NC(=O)Nc2ccc(OC)c(OC)c2)cc1Cl`, for which the cell number change is -18.8%. Under setting [2], the AC50 was 23.1 µM [rising, single point]. Turning to `CN(Cc1nc(-c2ccc(Cl)cc2)no1)C(=O)CCN1C(=O)[C@H]2CC=CC[C@H]2C1=O`, the cell number change came to 2.09%.

On to `CC1CCCN(C(=O)CN2C(=O)C(C)Oc3ccccc32)C1` (configuration not stated), for which the cell number change turned out to be 20.1%. Turning to `COc1ccc(OC)c(/C=c2\sc3nc(-c4cccs4)nn3c2=O)c1`, the cell number change was -6.16%. The AC50 under setting [1] was 6.51 µM [falling, single point]. Besides, under setting [2], the AC50 is 0.82 µM [falling, full curve]. With `Nc1nc(SCc2c(Cl)cccc2Cl)n[nH]1`, the AC50 under setting [1] was 0.00461 µM [rising, full curve, poor fit]. With `CCOC(=O)C1C(=O)OC(C)(C)C1C(CC)C(=O)c1c(C)cc(C)cc1C` (configuration not stated), the cell number change was 17.3%. For the same compound, the AC50 under setting [2] was 29.1 µM [rising, single point]. Consider `COC(=O)c1ccc(NC(=O)c2ccc3nsnc3c2)cc1`, for which the cell number change is 6.58%. For the same compound, the half-maximal activity concentration (AC50) under setting [2] is 6.31 µM [rising, single point]. On to `CC(=O)N1CCc2cc(S(=O)(=O)NC3CCCc4ccccc43)ccc21` (configuration not stated), for which the cell number change is -25.2%. Also, under setting [2], the AC50 was 8.2 µM [falling, partial curve]. As for `CN(Cc1ccccc1)c1ccc(C(CC(N)=O)NC(=O)Cc2cccc3ccccc23)cc1[N+](=O)[O-]` (configuration not stated), the cell number change is -13.8%. In addition, under setting [2], the AC50 was 2.59 µM [rising, partial curve, poor fit]. As for `CN1C(=O)N(C)C2(c3ccccc3)Nn3c(s/c(=C/c4ccccc4)c3=O)=NC12c1ccccc1` (configuration not stated), the cell number change is -2.26%. In addition, under setting [2], the concentration at half-maximal activity (AC50) was 29.1 µM [falling, partial curve].

As to `CC(NS(=O)(=O)c1ccc(Cl)cc1)C(=O)N1CCOCC1` (configuration not stated), the cell number change is -36.8%. For the same compound, under setting [1], the AC50 was 0.517 µM [falling, full curve, poor fit]. Take `CC(C)(C)NC(=O)CSc1ncnc2c1cnn2-c1ccccc1`: the cell number change was -18.6%. Under setting [2], the AC50 was 9.2 µM [falling, partial curve]. In the case of `COc1cccc(NC(=O)CCS(=O)(=O)c2ccc(Br)cc2)c1`, the AC50 by setting is: under setting [1], 6.51 µM [rising, single point]; under setting [2], 6.51 µM [rising, single point]. In the case of `O=C(NCc1cccc(Cl)c1)c1ccc2nc(N3CCOCC3)sc2c1`, the cell number change is -5.69%. Consider `O=C(O)Cn1nnn(-c2ccccc2)c1=S`, for which the cell number change is -35.5%. Moreover, the AC50 under setting [1] was 0.058 µM [falling, full curve]. Under setting [2], the AC50 was 1.16 µM [falling, full curve]. In the case of `COc1ccccc1C(=O)NC(=S)Nc1ccc(NC(=O)c2ccco2)cc1`, the cell number change was -56.7%. The AC50 under setting [1] was 20.6 µM [falling, single point].

With `O=C(Nc1cccnc1)C1(c2ccccc2)CCCC1`, the cell number change is -4.69%. In the case of `O=C1c2cccnc2C(O)N1Cc1ccccc1` (configuration not stated), the cell number change is -63.1%. Further, the AC50 under setting [1] was 20.6 µM [falling, partial curve, poor fit]. With `COc1cccc(C(c2c(O)nc(SC)n(C)c2=O)c2c(O)nc(SC)n(C)c2=O)c1`, the cell number change was -6.36%. Further, under setting [2], the half-maximal activity concentration (AC50) is 4.61 µM [rising, partial curve]. Take `Cc1nc(NC(=O)C2CCCC2)sc1Cc1ccc2c(c1)OCO2`: the cell number change was 1.1%. In addition, the AC50 under setting [2] is 0.58 µM [falling, single point]. Consider `O=C(CSc1nc2ccccc2[nH]1)NCCc1ccc(Cl)cc1`, for which the cell number change is -16.7%. Regarding `CCSc1nc(N2CCOCC2)c2c(c1C#N)CCCC2`, the cell number change was -6.29%. The AC50 under setting [2] is 29.1 µM [rising, single point]. As for `O=C(c1ccco1)N1CCN(C(=O)c2cc(Cl)nc3ccccc23)CC1`, the cell number change came out at 50%. In addition, the AC50 under setting [1] is 29.1 µM [rising, single point]. Further, the AC50 under setting [2] is 29.1 µM [rising, single point]. With `CN1C(=O)/C(=C/c2cc3c(cc2Br)OCO3)NC1=S`, the half-maximal activity concentration (AC50) by setting is: under setting [1], 0.731 µM [rising, full curve]; under setting [2], 0.517 µM [rising, full curve].

Regarding `CCCCn1c(CNC(=O)Cc2ccccc2)nc2ccccc21`, the cell number change was 46.4%. For the same compound, the AC50 under setting [1] was 20.6 µM [rising, single point]. Besides, under setting [2], the AC50 was 20.6 µM [rising, partial curve].

Turning to `COc1ccc(C2C(C(=O)O)c3ccccc3C(=O)N2Cc2ccco2)cc1` (configuration not stated), the cell number change is -44.9%. In addition, the concentration at half-maximal activity (AC50) under setting [1] is 10.3 µM [falling, partial curve]. Also, under setting [2], the AC50 is 25.9 µM [falling, single point]. On to `O=C1CCCc2c1nc(-c1ccccc1F)n2O`, for which the cell number change is -33.1%. The half-maximal activity concentration (AC50) under setting [1] was 32.6 µM [falling, single point].

A word on the AC50: it is the concentration giving half of the maximal activity seen. The low end stands for activity at low concentration, the high end for activity only at high concentration.
